## Assay results

Data taken from PubChem BioAssay AID912, deposited by NCATS (2007).

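A cell-based FRET test of anthrax lethal toxin entry, tracked through the 460 nm emission signal; the cell line is not named here. Each compound was tested as a concentration series from about 0.0005 to 40 µM. The number is the fitted AC50 of the 460 nm signal alone; lower values mean a more potent effect. A falling signal goes with compounds filed as inhibitors or cytotoxic, a rising one with activators or fluorescent compounds (inferred from the filed classes).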

Values are in µM. Common to all entries: measured here: 460 nm channel. Part of the compounds only, not a random draw; the main read-out is not listed here. A potency from a partial, single-point or poor curve is only a rough figure. The first word of each remark tells which way the curve ran; it can be opposite to the aim of the assay.

Compound	AC50 (µM)	remark
COc1ccc(Cn2c(-c3ccco3)nc3oc4ccccc4c(=O)c3c2=O)cc1	0.1585	rising, full curve, poor fit
CCn1[nH]c(=O)c(=Nc2c(C)n(C)n(-c3ccccc3)c2=O)cc1-c1ccc(Cl)cc1	3.162	rising, single point
c1ccc(-c2nc3nonc3nc2-c2ccccc2)cc1	3.981	falling, single point
Cc1ccc(CNC(=O)C2CCCN(S(C)(=O)=O)C2)cc1 (stereo not shown)	7.943	falling, partial curve, poor fit
Cc1nc(NC2=NCN(CCc3ccccc3)CN2)nc2c(C)cccc12	0.1	falling, full curve, poor fit
NC(N)=NCCN=C(N)N	5.012	rising, partial curve
C[N+](C)(C)/N=C\c1ccc(O)c(O)c1	0.631	falling, single point
Cc1ccc(-c2nn3c(C)nnc3s2)cc1NC(=O)c1ccc(OC(C)C)cc1	15.85	falling, partial curve
COc1cccc(-c2ccc3ncnc(N(C)C)c3c2)c1	31.62	falling, single point
O=c1c(-c2ccccc2)nc2cnc(N3CCOCC3)nc2n1Cc1cccs1	10	rising, partial curve
O=c1c2ccccc2[nH]c(=S)n1-c1ccc2c(c1)OCO2	6.31	falling, partial curve
Cn1cc(-c2nc3cnc(N4CCNCC4)nc3n(C)c2=O)c2ccccc21	3.981	rising, full curve
COC(=O)C1=CN(C2CC2)C=C(C(=O)OC)C1c1ccccc1OC	3.981	rising, partial curve
Cc1ccc2cc(C(c3nnnn3C3CCCC3)N3CCOCC3)c(=O)[nH]c2c1C (stereo not shown)	0.7943	falling, full curve, poor fit
COc1ccc(C2CC(=O)c3cnc(N4CCN(Cc5ccccc5)CC4)nc3C2)cc1 (stereo not shown)	31.62	rising, single point
C=CCn1c(C)cc(C(=O)CSc2nnc(-c3cccc(S(=O)(=O)N(CC)CC)c3)o2)c1C	12.59	falling, single point
CCOc1ccccc1N(CC(=O)NC1CCCCC1)C(=O)CCCC(=O)Nc1ccccn1	10	rising, partial curve
c1cc(NC2CC2)nc(-c2ccoc2)n1	3.162	falling, single point
N=c1c2c(-c3ccccc3)c(-c3ccccc3)n(Cc3ccco3)c2ncn1Cc1ccco1	10	falling, partial curve
COc1ccccc1Nc1nnc(SCC(=O)N2CCCC2)s1	15.85	rising, partial curve
COC(=O)[C@@]1(Cc2ccccc2)[C@H]2c3cc(C(=O)N4CCCC4)n(Cc4ccc(C)o4)c3C[C@H]2CN1C(=O)c1ccccc1	31.62	falling, single point
COc1ccccc1CNc1nc(-c2ccccc2CN(C)C)nc2ccccc12	31.62	falling, single point
C[C@@H](Cc1ccc(OCC(=O)O)cc1)NC[C@H](O)c1cccc(Cl)c1	12.59	falling, partial curve
Cn1c(=O)c2c(nc(CN3CCCCC3)n2CCc2ccccc2)n(C)c1=O	31.62	rising, single point
COc1ccc(C2C(C(C)=O)=C(C)N=c3s/c(=C\c4cc(C)n(C)c4C)c(=O)n32)c(OC)c1 (stereo not shown)	25.12	falling, single point
COC(=O)C(C(C)=O)C(NC(=O)NCc1ccccc1)c1ccccc1 (stereo not shown)	1	rising, single point
Cc1ccc2nc(-c3ccc(N)cc3)sc2c1S(=O)(=O)O	12.59	rising, partial curve, poor fit
COC(=O)c1cc(OC)c(OC)cc1NC(=O)c1cccnc1	31.62	falling, partial curve, poor fit
Cc1ccc2oc(=O)c3cc(C(=O)NCc4ccco4)sc3c2c1	15.85	falling, partial curve
O=S(=O)(c1cccc(C(F)(F)F)c1)N1CCC(O)(c2cccnc2)CC1	5.012	rising, partial curve
c1cc2c3c(c1)ccc1cccc(c13)C2	31.62	falling, single point
CCCN1CN(Cc2ccccc2)CC2=C1CC(C)(C)CC2=O	3.981	falling, partial curve
CCOC(=O)c1c(NC(=O)c2nn(CC)cc2Br)sc2c1CCCCC2	0.3162	falling, full curve, poor fit
CC(C)(c1ccc(OC[C@@H]2CO2)cc1)c1ccc(OC[C@H]2CO2)cc1	31.62	rising, partial curve, poor fit
CCN(CCCc1ccccc1)CCCc1ccccc1	12.59	falling, single point
CCOc1ccccc1N1CSC2=C(C#N)C(c3c(OC)ccc4ccccc34)CC(=O)N2C1 (stereo not shown)	12.59	falling, partial curve
CC(C)[C@H](CO)Nc1nc(Nc2cc(N)cc(Cl)c2)c2ncn(C(C)C)c2n1	15.85	falling, partial curve
CCOC(=O)N1CCC(NC(=O)c2ccc3c(c2)N(C)CCS3)CC1	5.012	rising, single point
O=C(COc1ccc2ccccc2c1Br)N1CCOCC1	1.995	falling, single point
CCC1Sc2ccccc2N(CC(=O)NCCC(C)C)C1=O (stereo not shown)	1.259	falling, full curve, poor fit
Cc1nnc(SCCN2C(=O)c3ccccc3C2=O)[nH]c1=O	0.3981	falling, partial curve
COc1cc(-c2nnc(CSc3nc4ccccc4s3)o2)cc(OC)c1OC	25.12	rising, partial curve

The first 5 entries again:

* COc1ccc(Cn2c(-c3ccco3)nc3oc4ccccc4c(=O)c3c2=O)cc1 : AC50 0.1585 µM (rising, full curve, poor fit)
* CCn1[nH]c(=O)c(=Nc2c(C)n(C)n(-c3ccccc3)c2=O)cc1-c1ccc(Cl)cc1 : AC50 3.162 µM (rising, single point)
* c1ccc(-c2nc3nonc3nc2-c2ccccc2)cc1 : AC50 3.981 µM (falling, single point)
* Cc1ccc(CNC(=O)C2CCCN(S(C)(=O)=O)C2)cc1 (stereo not shown) : AC50 7.943 µM (falling, partial curve, poor fit)
* Cc1nc(NC2=NCN(CCc3ccccc3)CN2)nc2c(C)cccc12 : AC50 0.1 µM (falling, full curve, poor fit)